Paper PMC11536904
Numbering of substitutions follows the chain as printed. Names and notes keep the numbering of the source. No constants are given. Whether binding was seen depends on the method and setting. In cells and extracts the contact can be indirect. Some results given as binding are weak or reduced against the parent protein; the word gives no strength. Sequences can lack the tags named with a protein. One block for each binder: values may come before it.

Experiments:
[1] = molecular target: T1, HA-tagged kinase-dead MST2(K56R) (UniProt Q13188); assay: co-IP; HEK cells co-transfected with WT FLAG-FOXF1 and WT or kinase-dead MST1/2; IP with anti-MYC or anti-HA; Dynabeads Protein G kit; FLAG-FOXF1 detected by blot
T1 sequence: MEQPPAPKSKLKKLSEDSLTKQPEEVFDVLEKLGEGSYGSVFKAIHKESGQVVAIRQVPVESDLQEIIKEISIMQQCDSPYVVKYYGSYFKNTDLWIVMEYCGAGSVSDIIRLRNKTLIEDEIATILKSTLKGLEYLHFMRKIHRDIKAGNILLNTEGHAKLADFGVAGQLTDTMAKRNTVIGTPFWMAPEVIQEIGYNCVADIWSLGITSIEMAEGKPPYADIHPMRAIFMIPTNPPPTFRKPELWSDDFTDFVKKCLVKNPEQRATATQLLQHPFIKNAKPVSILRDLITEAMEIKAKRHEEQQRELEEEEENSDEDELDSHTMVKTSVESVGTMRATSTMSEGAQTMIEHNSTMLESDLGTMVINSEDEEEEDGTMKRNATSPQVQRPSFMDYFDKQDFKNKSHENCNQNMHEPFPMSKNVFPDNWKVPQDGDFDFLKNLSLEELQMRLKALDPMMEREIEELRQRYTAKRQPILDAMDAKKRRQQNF

HA-tagged wild-type MST1 = molecular target: T2, HA-tagged wild-type MST1 (UniProt Q13043); assay: as above
T2 sequence: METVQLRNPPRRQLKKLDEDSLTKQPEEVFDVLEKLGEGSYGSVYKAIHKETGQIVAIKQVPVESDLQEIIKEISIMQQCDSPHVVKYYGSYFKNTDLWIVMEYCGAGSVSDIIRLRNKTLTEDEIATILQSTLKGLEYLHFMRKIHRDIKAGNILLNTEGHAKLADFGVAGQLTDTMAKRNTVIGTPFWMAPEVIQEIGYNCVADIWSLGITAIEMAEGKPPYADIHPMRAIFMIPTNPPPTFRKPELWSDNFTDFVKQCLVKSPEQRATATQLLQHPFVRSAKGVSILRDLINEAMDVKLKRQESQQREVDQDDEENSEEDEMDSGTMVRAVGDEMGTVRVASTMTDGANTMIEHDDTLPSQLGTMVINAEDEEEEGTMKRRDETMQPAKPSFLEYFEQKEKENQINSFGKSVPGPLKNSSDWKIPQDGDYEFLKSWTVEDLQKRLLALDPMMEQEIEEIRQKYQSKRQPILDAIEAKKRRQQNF

MYC-tagged MST2 [2] = molecular target: T3, MYC-tagged MST2 (UniProt Q13188); assay: as above
T3 sequence: T1 sequence with R56K

[3] = molecular target: T4, MYC-tagged kinase-dead MST1(K59R) (UniProt Q13043); assay: as above
T4 sequence: T2 sequence with K59R

MYC-tagged MST1 = molecular target: T5, MYC-tagged MST1 (UniProt Q13043); assay: co-IP; HEK293T co-transfected with WT FLAG-FOXF1 and MYC-MST1 or MYC-MST2; whole-cell lysates; IP with anti-MYC or anti-FLAG; protein G agarose beads (WT constructs); western blot
T5 sequence: T2 sequence

MYC-tagged MST2 [4] = molecular target: T3, MYC-tagged MST2; assay: as above
[5] = molecular target: T6, Endogenous MST2 of the transfected cells (Fig. 4C) (human (endogenous in the transfected cells; HEK293T is named for immunoprecipitation transfections)) (UniProt Q13188); assay: co-IP; transfected epitope-tagged FOXF1 (mutants V96L, S101P) and endogenous MST2; IP with antibodies against MST2; blots for MST2 and FOXF1
T6 sequence: T1 sequence with R56K

- binding [1]: binds
- binding (HA-tagged wild-type MST1): binds
- binding (MYC-tagged MST2 [2]): binds
- binding [3]: binds
- binding (MYC-tagged MST1): binds
- binding (MYC-tagged MST2 [4]): binds
B1: FLAG-tagged wild-type FOXF1 (Forkhead box F1) (protein, UniProt Q12946 1-379)
chain: MSSAPEKQQPPHGGGGGGGGGGGAAMDPASSGPSKAKKTNAGIRRPEKPPYSYIALIVMAIQSSPTKRLTLSEIYQFLQSRFPFFRGSYQGWKNSVRHNLSLNECFIKLPKGLGRPGKGHYWTIDPASEFMFEEGSFRRRPRGFRRKCQALKPMYSMMNGLGFNHLPDTYGFQGSAGGLSCPPNSLALEGGLGMMNGHLPGNVDGMALPSHSVPHLPSNGGHSYMGGCGGAAAGEYPHHDSSVPASPLLPTGAGGVMEPHAVYSGSAAAWPPSASAALNSGASYIKQQPLSPCNPAANPLSGSLSTHSLEQPYLHQNSHNAPAELQGIPRYHSQSPSMCDRKEFVFSFNAMASSSMHSAGGGSYYHQQVTYQDIKPCVM

- binding [5]: binds
B2: Epitope-tagged FOXF1 S101P mutant (protein, UniProt Q12946 1-379)
chain: B1 chain with S101P

- binding [5]: binds
B3: Epitope-tagged FOXF1 V96L mutant (protein, UniProt Q12946 1-379)
chain: B1 chain with V96L
